Results as given in paper PMC2812684 (Biochimica et biophysica acta, 2009).
Where “and” joins values, the source holds several entries; their conditions need not be identical. Equal values may be shown once. Read-outs that look alike come from different tables or passages of the source.

The chains behind the UniProt entries cited, without tags or fusion partners. Where a name states a change or a piece, a line headed by the entry shows the natural chain unless it says otherwise. Residues count along the entry.
UniProt P03889: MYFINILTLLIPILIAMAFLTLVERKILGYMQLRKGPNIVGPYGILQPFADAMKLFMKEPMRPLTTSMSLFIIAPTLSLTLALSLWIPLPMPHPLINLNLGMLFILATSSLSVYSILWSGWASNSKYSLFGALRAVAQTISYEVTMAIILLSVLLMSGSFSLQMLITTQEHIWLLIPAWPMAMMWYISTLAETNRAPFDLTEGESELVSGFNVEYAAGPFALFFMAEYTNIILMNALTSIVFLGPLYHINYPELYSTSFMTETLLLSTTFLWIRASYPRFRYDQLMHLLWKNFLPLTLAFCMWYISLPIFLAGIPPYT
UniProt Q641Y2, 34-463: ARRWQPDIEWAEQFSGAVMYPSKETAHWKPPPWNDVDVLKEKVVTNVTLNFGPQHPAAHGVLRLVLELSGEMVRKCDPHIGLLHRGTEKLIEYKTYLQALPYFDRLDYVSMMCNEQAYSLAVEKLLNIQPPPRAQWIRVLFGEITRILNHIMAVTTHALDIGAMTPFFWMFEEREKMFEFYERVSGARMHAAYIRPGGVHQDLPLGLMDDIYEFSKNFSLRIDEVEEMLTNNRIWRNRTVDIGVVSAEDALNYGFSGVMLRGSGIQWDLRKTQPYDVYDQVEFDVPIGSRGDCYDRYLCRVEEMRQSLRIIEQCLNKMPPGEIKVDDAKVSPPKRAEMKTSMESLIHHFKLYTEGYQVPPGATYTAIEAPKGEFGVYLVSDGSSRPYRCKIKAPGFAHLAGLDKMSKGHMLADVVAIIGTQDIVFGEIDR

How the values were obtained:
[1] = molecular target: T1, NADH-ubiquinone oxidoreductase (complex I) (Rattus norvegicus, UniProt P03889+Q641Y2); assay: cell-based; conditions: for IC50: IC50 Complex I
[2] = molecular target: T1, NADH-ubiquinone oxidoreductase (complex I)
[3] = molecular target: T1, NADH-ubiquinone oxidoreductase (complex I); remark: listed apart in the source
[4] = molecular target: T1, NADH-ubiquinone oxidoreductase (complex I); assay: cell-based; conditions: for IC50: IC50 Complex I; remark: listed apart in the source
[5] = read-out: inhibition of respiration at flux point

For `C=C(C)[C@H]1Cc2c(ccc3c2O[C@@H]2COc4cc(OC)c(OC)cc4[C@@H]2C3=O)O1` [rotenone], the IC50 ([1]; MA) was 3000 nM, the IC50 ([1]; Old) was 1000 nM and the inhibition at 3 µM [1, 5] was 39%. The “decrease of IC50 with age” value [2] was 67%, the “decrease of IC50 with exogenous vs endogenous substrates” value [2] was 9% and the “increase of IC50 with exogenous vs endogenous substrates” value [2] was 114%. The “decrease of IC50 with age” value [3] was 21%, the “percent of initial respiration remaining at flux point” value [3] was 39% and 40% and the IC50 ([4]; MA) was 1400 nM. For the same compound, the IC50 ([4]; Old) was 1100 nM and the inhibition at 3 µM [4, 5] was 61%.
